From doi:10.1101/2021.02.23.432418

Columns and labels:
[1] = target: porcine Gasdermin D residues 194-279 (pGSDMD-194-279) (porcine (cDNA of IPEC-J2 cells)); assay: co-IP
[2] = target: porcine Gasdermin D residues 1-193 (pGSDMD-1-193) (porcine (cDNA of IPEC-J2 cells)); assay: co-IP

B1: porcine caspase-1 (HA-caspase-1) (enzyme, UniProt Q9N2I1 1-404)
chain: MADKVLKEKRRLFVRSVAMGTINGLLDELLETRVLNQEEVEIVRGENATVMDKARALIDSVIRKGPQACQICINHICGDDPHLAGVLELSTGSQSGKCLTVQESQAVVPPFPAPQTVQDNPVKPASSEPRGSLKLCPPDIAQRLWKEKSAEIYPIMGKSIRTRLALIICNTEFENLPRRDGADVDIRDMKILLEDLGYSVDVRENLTASDMAIELKAFAARPEHKSSDSTFLVLMSHGIQAGICGKKYSEEVPDVLEVNTVFQILNTLNCPSLKDKPKVIIIQACRGEKQGVVWIKDSVGPSGNSSLLAAEDFEYDAIKKAHIEKDFIAFCSSTPDNVSWRHPLLGSLFIIKLIKILQEHAWSCGLEEIFRKVRFSFELADGRAQMPTAERVTLTRSFYLFPGH
binding [1]: no binding | binding [2]: no binding

No constants are given. Whether binding was seen depends on the method and setting. Binding seen in cells or lysates may run through a third protein. Sequences can lack the tags named with a protein.
